US20200375691A1, “PERACETIC ACID VAPOR STERILIZATION SYSTEM” (Medivators Inc., priority 2018, published 2020)

System: biological indicators (BIs)
Assay: Heated 90 cm bubbler runs, biological indicators in beakers, Tyvek and process challenge devices
Type: cell-based
Details: PAA Bubbler technology
Protocol: In this example embodiment of bubbler 430 and system 420, the Bubbler System was modified to accept a 50 mm outside diameter by 90 cm long glass tube (5 mm wall thickness) attached to a 417-liter REVOX system. During all experiments, 250 mL of REVOX PA liquid was measured by graduated cylinder and poured into the 90 cm Bubbler. The Bubbler System was connected to the 417-liter REVOX sterilization chamber referred to as an improved bubbler vessel configuration. Air was drawn into bubbler 430 using only the force of the vacuum within sterilization chamber. A simple on-off valve was used to control the flow of air through the bubbler, allowing for “blocks” to be created in a similar manner to a normal REVOX cycle. In several cases a flow meter and/or infrared vapor detector was used to monitor the output of the Bubbler. […]
The difference between heated and non-heated bubbler systems is the resulting humidity present in the chamber during the sterilization cycles. […] Maximum humidity levels were recorded by visual observation. […]
Cycle 254 tested a single 15-minute contact time on BIs in the chamber and within a Tyvek pouch. […] The bone matrix, however, is readily porous and should be easily sterilized under these conditions. […]

SMILES: CC(=O)OO [PAA, peracetic acid]
- relative humidity at which PAA vapor is efficacious: greater than or equal to 80 % relative humidity
